Source: patent publication US20150018228A1, “ENZYME DETECTION BY MICROFLUIDICS” (priority 2011, published 2015)
For some assays here: No signal at the amounts used counts as a negative. Tags and fusion partners may be left off the protein sequences shown.

Key:
[1] = biological target: T1, human topoisomerase I (hTopI) (Homo sapiens) (UniProt P11387); assay: activity assay; details: no circularization by REEAD; purified recombinant protein; folded or branched DNA
T1 sequence (looked up, limits assumed): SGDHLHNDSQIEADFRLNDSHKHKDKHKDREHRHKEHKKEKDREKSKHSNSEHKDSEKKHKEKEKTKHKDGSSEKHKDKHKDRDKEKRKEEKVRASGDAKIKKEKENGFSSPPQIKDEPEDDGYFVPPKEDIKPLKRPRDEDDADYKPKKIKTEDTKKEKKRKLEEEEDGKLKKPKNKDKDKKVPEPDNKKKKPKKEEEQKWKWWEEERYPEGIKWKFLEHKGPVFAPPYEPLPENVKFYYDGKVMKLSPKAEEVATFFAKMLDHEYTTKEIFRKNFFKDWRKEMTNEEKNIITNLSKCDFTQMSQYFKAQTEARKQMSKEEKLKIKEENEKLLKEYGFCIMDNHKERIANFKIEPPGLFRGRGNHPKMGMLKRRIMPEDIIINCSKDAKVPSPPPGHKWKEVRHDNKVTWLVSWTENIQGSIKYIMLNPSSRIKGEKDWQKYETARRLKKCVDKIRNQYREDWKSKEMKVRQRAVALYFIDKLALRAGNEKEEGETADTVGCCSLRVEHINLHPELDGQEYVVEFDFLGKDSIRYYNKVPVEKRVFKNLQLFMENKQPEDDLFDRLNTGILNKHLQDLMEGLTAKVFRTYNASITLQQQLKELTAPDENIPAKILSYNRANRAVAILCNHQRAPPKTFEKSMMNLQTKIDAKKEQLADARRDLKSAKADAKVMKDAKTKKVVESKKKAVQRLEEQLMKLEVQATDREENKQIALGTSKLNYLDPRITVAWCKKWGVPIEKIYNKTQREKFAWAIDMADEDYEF

[2] = biological target: T2, human topoisomerase I (endogenous, HEK293 cells) (Homo sapiens) (UniProt P11387); assay: activity assay; details: protein in an extract, folded or branched DNA
T2 sequence (looked up, limits assumed): T1 sequence (looked up, limits assumed)

[3] = biological target: T1, human topoisomerase I (hTopI) (Homo sapiens); assay: enzyme reaction in vitro; details: cleaves classical hexadecameric site only, not the additional downstream sites near the 3'-end; same conditions; purified recombinant protein; label: 5'-32P on OL62

Row | Sequence | activity on this sequence [1] | further results
1 | TTATAATTTTTTGGAACTTCGAACGACTCAGAATGACTGTGAAGATCGCTTATCCTCAATGCACATGTTTGGCTCCCATTCTGAGTCGTTCGAAGTTCCAAAAAATT [pfTopI(S4)] | not active | 
2 | CATACATTATACGAAGTTATGAGCGTCTGAGTATGACTGTGAAGATCGCTTATCAGTGAATGCGAGTCCGTCTACTCATACTCAGACGCTCATAACTTCGTATAATGT [pfTopI(S2)] | not active | 
3 | TCTAGAAAGTATAGGAACTTCGAACGACTCAGAATGACTGTGAAGATCGCTTATCCTCAATGCACATGTTTGGCTCCCATTCTGAGTCGTTCGAAGTTCCTATACTTT [pfTopI(S1)] | not active | activity on this sequence ([2]; no signal in HEK293T nuclear extract without pfTopI spike-in): not active
4 | GCCTGCAGGTCGACTCTAGAGGATCTAAAAGACTTAGAAAAATTTTTAGGCTCAATCTAGAAGTTCCTACTTAGA / ATTTTTCTAAGTAGGAACTTCTAGATTGAGCCTAAAAATTTTTCTAAGTCTTTTAGATCCTCTAGAGTCGACCTGCAGGC [OL62/OL63] |  | activity on this sequence [3]: active
5 | ATTTTTCTAAGTCTTTTAGATCGAACGACTCAGAATGACTGTGAAGATCGCTTATCCTCAATGCACATGTTTGGCTCCCATTCTGAGTCGTTCGATCTAAAAGACTTAGA [pfTopI(S5)] | not active | 
6 | AGAAAAATTTTTAAAAAAACTGTGAAGATCGCTTATTTTTTTAAAAATTTTTCTAAGTCTTTTAGATCCCTCAATGCTGCTGCTGTACTACGATCTAAAAGACTTAGA [S(TopI)] |  | activity on this sequence ([2]; 3'-amine (as printed in sequence list), circularization by REEAD in HEK293 lysate droplets and HEK293T nuclear extract): active
7 | ATTATAATTTTTTGGAACTTCGAACGACTCAGAATGACTGTGAAGATCGCTTATCCTCAATGCACATGTTTGGCTCCCATTCTGAGTCGTTCGAAGTTCCAAAAAATT [pfTopI(S3)] | not active | 
